The target of assay [1] is PRR9-nYFP (Arabidopsis thaliana). The assay can be described thus: split reporter; BiFC with cYFP and nYFP fusions transiently coexpressed in N. benthamiana leaf cells; YFP fluorescence read by confocal microscopy 40-52 h after infiltration.
Assay [2] has as its target BD-PRR9 (full length, fused to the Gal4 DNA-binding domain) (Arabidopsis thaliana). The assay is described as follows: two-hybrid; Gal4 system; baits in pGBKT7 (BD), preys in pGADT7 (AD), cotransformed into yeast AH109; growth on dropout medium lacking Leu, Trp, His and Ade for 4 days.
For assay [3], the target named is BD-PRR3 (full length, fused to the Gal4 DNA-binding domain) (Arabidopsis thaliana). Described as above.

No constants are given. Whether binding was seen depends on the method and setting. For part of these data: Binding seen in cells or lysates may run through a third protein. Tags and fused reporters may be left off the sequences shown.

B1: ABI5-cYFP (protein, UniProt Q9SJN0 1-442)
chain: MVTRETKLTSEREVESSMAQARHNGGGGGENHPFTSLGRQSSIYSLTLDEFQHALCENGKNFGSMNMDEFLVSIWNAEENNNNQQQAAAAAGSHSVPANHNGFNNNNNNGGEGGVGVFSGGSRGNEDANNKRGIANESSLPRQGSLTLPAPLCRKTVDEVWSEIHRGGGSGNGGDSNGRSSSSNGQNNAQNGGETAARQPTFGEMTLEDFLVKAGVVREHPTNPKPNPNPNQNQNPSSVIPAAAQQQLYGVFQGTGDPSFPGQAMGVGDPSGYAKRTGGGGYQQAPPVQAGVCYGGGVGFGAGGQQMGMVGPLSPVSSDGLGHGQVDNIGGQYGVDMGGLRGRKRVVDGPVEKVVERRQRRMIKNRESAARSRARKQAYTVELEAELNQLKEENAQLKHALAELERKRKQQYFESLKSRAQPKLPKSNGRLRTLMRNPSCPL
With B1, in assay [1], the binding entry is reported as “no binding”.

B2: AD-ABI5 (ABSCISIC ACID-…5, full length, fused to the Gal4 activation domain) (protein, UniProt Q9SJN0 1-442)
chain: MVTRETKLTSEREVESSMAQARHNGGGGGENHPFTSLGRQSSIYSLTLDEFQHALCENGKNFGSMNMDEFLVSIWNAEENNNNQQQAAAAAGSHSVPANHNGFNNNNNNGGEGGVGVFSGGSRGNEDANNKRGIANESSLPRQGSLTLPAPLCRKTVDEVWSEIHRGGGSGNGGDSNGRSSSSNGQNNAQNGGETAARQPTFGEMTLEDFLVKAGVVREHPTNPKPNPNPNQNQNPSSVIPAAAQQQLYGVFQGTGDPSFPGQAMGVGDPSGYAKRTGGGGYQQAPPVQAGVCYGGGVGFGAGGQQMGMVGPLSPVSSDGLGHGQVDNIGGQYGVDMGGLRGRKRVVDGPVEKVVERRQRRMIKNRESAARSRARKQAYTVELEAELNQLKEENAQLKHALAELERKRKQQYFESLKSRAQPKLPKSNGRLRTLMRNPSCPL
On to B2, for which the binding entry in assay [2] and in assay [3] was “no binding” throughout.

These data come from publication PMC8462813.
